Source: PubChem BioAssay AID686937 (Drosophila RNAi Screening Center, 2013)

Screen: 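Genes in the fly needed for secretion of protein constitutively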 (primary screen)
Cell system: Drosophila S2 cells expressing secreted horseradish peroxidase
Reagents: long dsRNA against Drosophila genes
Time to read-out: about 5.5 days (5 days dsRNA, then 12 h reporter induction)
Conditions: reporter expression induced after 5 days of dsRNA, read 12 h later; inducer not stated
Measurement: 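After 5 days of dsRNA and 12 h of reporter induction, medium peroxidase read by chemiluminescence and scored as per-plate z-score; higher values mean more reporter released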
Reading the numbers: z-score: higher = more reporter secreted into medium
In all, the deposit lists about 23,000 reagents; this is an unselected part of those that have a named target and a result. 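Reduced-secretion tags in replicate 1 do not always agree with the z-scores; no criterion for assigning the tags was given.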 The numbers tell different reagents against one gene apart. Names joined by + are all predicted targets of the reagent. The record does not give: the amount of reagent.

predicted target | reagent no. | z-score, replicate 1 | z-score, replicate 2 | z-score, replicate 3 | z-score, replicate 4 | phenotype, replicate 1
twin | 1 | 0.2 | 0.31 | – | – | –
twin | 2 | 0.37 | 0.43 | – | – | –
twin | 3 | 1.16 | 0.36 | – | – | –
GC2 | 1 | -0.1 | 0.15 | – | – | –
CG15387 | 1 | -0.07 | 0.33 | – | – | –
ZIPIC | 1 | 0.05 | 0.12 | – | – | –
mRpS23 | 1 | -0.65 | -0.31 | – | – | –
PheRS-m | 1 | 0.47 | 0.26 | – | – | –
Tfb4 | 1 | -1.73 | -1.26 | – | – | reduced secretion
cGlr1 | 1 | -1.77 | 0.32 | – | – | reduced secretion
nol | 1 | 0.23 | -0.23 | – | – | –
VhaM9.7-b | 1 | 0.28 | 0.48 | – | – | –
Polr2M | 1 | -1.14 | -1.43 | – | – | –
CG4270 | 1 | 0.17 | 0.39 | – | – | –
CG8952 | 1 | 0.11 | 0.21 | – | – | –
Rab3GAP1 | 1 | 0.21 | 0.02 | – | – | –
Rab3GAP1 | 2 | 0.08 | 0.17 | – | – | –
betaTry | 1 | 0.42 | 0.35 | 0.39 | -0.13 | –
betaTry | 2 | 0.15 | 0.51 | – | – | –
CG3270 | 1 | 0.03 | 0.09 | – | – | –
CG34292 | 1 | 0.3 | -0.37 | – | – | –
Or67b | 1 | 0.29 | 0.25 | – | – | –
CG8858 | 1 | 0.46 | 0.18 | – | – | –
CG11912 | 1 | 0.23 | 0.25 | – | – | –
CG8929 | 1 | -3.29 | -4.02 | – | – | reduced secretion
CG8929 | 2 | 1.48 | 0.72 | – | – | –
TBC1d7 | 1 | 0.31 | 0.28 | – | – | –
Edg84A | 1 | 0.43 | 0.45 | – | – | –
Tsf1 | 1 | 0.22 | 0.02 | – | – | –
CG3376 | 1 | 0.16 | 0.44 | – | – | –
Snx17 | 1 | 0.07 | 0.35 | – | – | –
Rrp46 | 1 | -1.82 | -1.2 | – | – | reduced secretion
Ubr1 | 1 | 0.77 | 0.68 | – | – | –
CG31388 | 1 | 0.4 | 0.51 | – | – | –
Nedd8 | 1 | -0.67 | -1.1 | – | – | –
Roc2 | 1 | 0.33 | 0.41 | – | – | –
APC4 | 1 | -0.15 | -0.65 | – | – | –
Trs33 | 1 | -0.02 | -0.17 | – | – | –
Gnptab | 1 | 0.13 | 0.2 | – | – | –
CG42319 | 1 | 0.13 | 0.09 | – | – | –
CG42319 | 2 | -0.02 | -0.1 | – | – | –
CG42319 | 3 | 0.18 | -0.06 | – | – | –
CG9257 | 1 | 0.03 | 0.25 | – | – | –
CG14441 | 1 | 0.02 | -0.67 | – | – | –
CG30376 | 1 | 0.8 | – | – | – | –
CG34238 | 1 | 0.2 | 0.32 | – | – | –
CG9265 | 1 | 0.25 | 0.46 | – | – | –
CG9265 | 2 | 0.39 | -0.37 | – | – | –
Non3 | 1 | 0.05 | -0.06 | – | – | –
NAT1 | 1 | 0.57 | 0.52 | – | – | –
laza | 1 | 0.1 | 0 | – | – | –
MED14 | 1 | 0.17 | 0.29 | – | – | –
CG15449 | 1 | 0.7 | 0.46 | – | – | –
CG13060 | 1 | -0.09 | 0.05 | – | – | –
to | 1 | 0.27 | 0.09 | – | – | –
fzr | 1 | 0.26 | 0.16 | – | – | –
CG31897 | 1 | 0.16 | 0.06 | – | – | –
CG6701 | 1 | -1.65 | 0.38 | – | – | reduced secretion
CG15136 | 1 | -0.13 | -0.13 | – | – | –
salr | 1 | -0.28 | -0.24 | – | – | –
CG4612 | 1 | -0.53 | -0.5 | – | – | –
CG30385 | 1 | 0.29 | 0.21 | – | – | –
Ocho | 1 | 0.48 | 0.36 | – | – | –
CG5493 + CG5327 | 1 | 0.41 | 0.32 | – | – | –
mri | 1 | 0.14 | 0.37 | – | – | –
MsR1 | 1 | 0.18 | -0.01 | – | – | –
CG9903 | 1 | 0.44 | 0.49 | – | – | –
T48 | 1 | 0.21 | 0.32 | – | – | –
CG10953 | 1 | 0.28 | 0.09 | – | – | –
CG13288 | 1 | 0.41 | 0.3 | – | – | –
tzn | 1 | 0.16 | 0.24 | – | – | –
E(spl)m8-HLH | 1 | 0.27 | 0.17 | – | – | –
CG12384 | 1 | 0.23 | 0.42 | -0.25 | -0.38 | –
Pkn | 1 | 0.22 | 0.32 | – | – | –
Pkn | 2 | 0.31 | 0.26 | – | – | –
Oseg6 | 1 | 0.17 | 0.15 | – | – | –
Socs16D | 1 | -0.35 | -0.03 | – | – | –
CG16837 | 1 | 0.3 | 0 | – | – | –
Alg2 | 1 | -1.22 | -1.38 | – | – | –
CG31145 | 1 | 0.26 | 0.29 | – | – | –
CG31145 | 2 | 0.16 | 0.22 | – | – | –
CG31145 | 3 | -2.27 | -1.04 | – | – | reduced secretion
CG31145 | 4 | 0.17 | 0.5 | – | – | –

Entries listed so far whose target name begins with G or g:
predicted target | reagent no. | z-score, replicate 1 | z-score, replicate 2 | z-score, replicate 3 | z-score, replicate 4 | phenotype, replicate 1
GC2 | 1 | -0.1 | 0.15 | – | – | –
Gnptab | 1 | 0.13 | 0.2 | – | – | –
